Data source: PubChem BioAssay AID1671195 (Yale University, 2021)
In all, the deposit lists about 22,000 reagents; shown is an unselected part. Over the whole deposit, about 1,510 (6.9%) were called active. 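Active includes knockdowns raising or lowering LDL uptake; positive z-scores mean more uptake, negative mean less.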 Entries without a mark were called inactive. Reagent sequences are not shown.

- Purpose: 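Knockdowns that increase or decrease uptake of fluorescent LDL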 (primary screen)
- Cell system: human Huh7 hepatoma cells
- Reagents: siRNA pool against human genes, 18 nM
- Timing: about 2 to 2.5 days of knockdown, then 8 h LDL uptake
- Conditions: DiI-labelled LDL at 30 µg/ml for 8 h, in lipoprotein-deficient serum medium
- Detection: 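Fluorescent LDL signal imaged in cells, scaled to the plate median, robust z-score for each replicate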
- Reading the numbers: robust z-score: higher = more LDL uptake after knockdown
- Active means: 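a gene counts as active if at least two replicate z-scores exceed ±2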

target gene | robust z-score, replicate 1 | robust z-score, replicate 2 | robust z-score, replicate 3
COPS8 | 4.67 (active) | 2.58 | 4.51
TWF1 | -0.246 | 0.376 | 0.64
QDPR | 1.32 | -0.0131 | 1.63
ZNF813 | 0.991 | 0.503 | 0.462
CLECL1 | -0.651 | -0.335 | -0.722
FKBP5 | -0.253 | -0.0755 | -0.473
GAB4 | 0.113 | 0.479 | -0.969
PRMT7 | 0.65 | 1.09 | 1.2
STMN2 | -0.926 | -1.39 | -1.85
CPO | 0.616 | -0.0756 | 0.995
TRIM26 | -1.52 | -2.08 | -0.992
CLUH | -1.41 | 0.593 | -0.787
RABGAP1L | 0.0916 | -1.15 | -1.24
LY6S-AS1 | -1.89 (active) | -1.98 | -2.05
CD79B | -0.693 | -0.662 | 0.582

Records above whose gene name starts with T or t:
target gene | robust z-score, replicate 1 | robust z-score, replicate 2 | robust z-score, replicate 3
TWF1 | -0.246 | 0.376 | 0.64
TRIM26 | -1.52 | -2.08 | -0.992

Further reagents follow.
target gene | robust z-score, replicate 1 | robust z-score, replicate 2 | robust z-score, replicate 3
FAM47B | 0.452 | 1.5 | -0.435
LOC390488 (retired record) | 0.0331 | 0.0685 | 0.154
TRIM6 | 1.03 | 0.198 | 1.17
MAGIX | -1.38 | -1.62 | -1.8
LRRC71 | 1.89 | -1.26 | 1.16
TLL1 | 1.02 | 0.631 | 1.64
ORMDL1 | 0.771 | 0.789 | 1.4
SH2D6 | 2.14 (active) | 1.96 | 1.57
LOC130063 (retired record) | 0.179 | -1.44 | -0.612
GPT2 | -0.0558 | 1.18 | -0.157
NCKIPSD | -0.43 | -0.378 | 0.443
LOC400944 (retired record) | -0.88 | -0.821 | -0.355
DSCR10 | -0.327 | 0.0995 | 0.31
